Assay results published in publication PMC9935630.
These are yes or no findings as the source states them, for the method shown. Binding seen in cells or lysates may run through a third protein. Some binding calls cover weakened binding; strength is not graded here.

Sequences of proteins named here, by UniProt entry; tags and fusion partners are left off.
UniProt Q9DCC8: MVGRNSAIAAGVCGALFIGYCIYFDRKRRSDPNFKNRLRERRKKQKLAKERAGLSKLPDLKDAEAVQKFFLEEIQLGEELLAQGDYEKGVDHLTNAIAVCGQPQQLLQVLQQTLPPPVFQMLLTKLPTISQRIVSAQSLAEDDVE

Biological target: T1, GSDMD, mouse, endogenous in bone marrow neutrophils (precipitated with anti-GSDMD) (mouse (endogenous in bone marrow neutrophils)) (UniProt Q9D8T2)
T1 sequence: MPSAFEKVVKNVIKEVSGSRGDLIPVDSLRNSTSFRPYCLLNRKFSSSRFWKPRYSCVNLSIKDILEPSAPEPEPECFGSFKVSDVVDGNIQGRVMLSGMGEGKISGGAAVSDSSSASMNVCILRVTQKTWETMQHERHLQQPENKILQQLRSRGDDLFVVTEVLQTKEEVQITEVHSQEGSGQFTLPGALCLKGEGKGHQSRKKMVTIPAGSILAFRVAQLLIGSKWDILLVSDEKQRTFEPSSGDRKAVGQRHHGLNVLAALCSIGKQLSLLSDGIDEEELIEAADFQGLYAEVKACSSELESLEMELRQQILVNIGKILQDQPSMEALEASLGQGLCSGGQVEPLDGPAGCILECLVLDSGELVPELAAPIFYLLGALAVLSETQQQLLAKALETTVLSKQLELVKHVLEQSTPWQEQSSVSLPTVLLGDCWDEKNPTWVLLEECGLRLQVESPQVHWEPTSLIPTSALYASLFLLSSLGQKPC
Experiment: co-IP; lysate of bone marrow neutrophils (NP40 buffer) after IFN-γ plus lupus serum for 12 h, with or without Mito-TEMPO; precipitated with anti-GSDMD and protein A/G agarose, washed with NETN300 and NETN100, blotted for TOMM20 and GSDMD

- binding: binds
Substance: translocase of outer mitochondrial membrane 20 (TOMM20), mouse, endogenous in bone marrow neutrophils (from UniProt Q9DCC8 1-145)
